# Measurements as given in PubChem BioAssay AID493014 (National Center for Advancing Translational Sciences (NCATS), 2011).
# In all, about 340,000 compounds went through this assay and about 170 (0.05%) were called active. This list was built around the results that the source calls inconclusive (neither active nor inactive); the mix of calls is not that of the screen. Calls follow the shape of the dose curve; as a rule, active = well fitted inhibition curve with a large enough effect in the signal ratio, with a control signal flat (not every such curve was filed as active); inconclusive = small, poorly fitted or top-dose-only effect, or effect the other way, or a change in a side signal; inactive = flat fitted curve, though single readings scatter; the % refers to the signal ratio. Potencies beside an inconclusive call are fits to weak or partial responses and may not hold up.
# Experiment: qHTS Assay to Find Inhibitors of Chronic Active B-Cell Receptor Signaling;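 as to activity change, negative = inhibition: plate controls were basal doxycycline-induced cells for no effect and cells given 10 µM MG132 for full effect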
# Conditions: ABC-DLBCL IkBa-CBG/CBR reporter, luminescence ratio (green luciferase fused to IkBa over red control in TMD8 lymphoma cells), 4 h; activity change, negative = inhibition: at 46.1 µM (top of the series)
# Method in brief: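 Concentration-response series (up to 46 uM) were applied to TMD8 dual-reporter cells for 4 h at 37C with doxycycline. Green/red ratio, after filter-overlap correction, defined %Activity; red signal alone was normalised to basal cells and zero luminescence.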
# Potency is read from the fitted curve at half-maximal effect.
SMILES,"activity change, negative = inhibition",Potency
C=CCOc1ccc(/C=C2\SC(=S)N(NS(=O)(=O)c3ccc(C)cc3)C2=O)cc1,inactive: -2.23%,–
COC(=O)c1ccc(NC(=O)CN(c2ccc(OC)cc2)S(C)(=O)=O)cc1,inconclusive: -26.2%,–
Oc1ccc2nnc3c(Br)cnn3c2c1,inconclusive: -6.23%,–
CC(C)C(=O)c1ccc(O)c(O)c1,inconclusive: 12.4%,–
Cc1ccc2cc(CN(CC3CCCO3)S(=O)(=O)c3cccc4nsnc34)c(=O)[nH]c2c1 (configuration not stated),inactive: -12.3%,–
CCOC(=O)N1CCN(S(=O)(=O)CCNC(=O)c2ccccc2)CC1,–,"inconclusive: 25.9 µM [falling, single point]"
COc1ccccc1CNC(=O)CSc1nc(N)c(C#N)c(-c2cccs2)c1C#N,–,"inconclusive: 14.1 µM [rising, partial curve, poor fit]"
CC(C)Cn1cnc2c1c(=O)[nH]c(=O)n2Cc1ccccc1,inactive: -1.13%,–
Cc1ccc(C(=O)NCCNS(=O)(=O)c2ccccc2)cn1,inactive: -12.1%,–
Cc1cc(/C(N)=N/OC(=O)c2ccc(Cl)cc2)no1,inconclusive: -7.41%,–
COc1ccc(-c2ccc(-c3nc4c(c(=O)[nH]c(=O)n4Cc4ccccc4)n3C)o2)c([N+](=O)[O-])c1,inactive: -4.62%,–
COc1ccc(OC)c(Nc2nc(NCCO)c3ccccc3n2)c1,inconclusive: -1.72%,–
O=C(Nc1cccc(C(F)(F)F)c1)c1ccc2nc(-c3ccco3)c(-c3ccco3)nc2c1,–,"inconclusive: 1.46 µM [rising, full curve, poor fit]"
Cc1ccc(S(=O)(=O)NCCCNc2ccc([N+](=O)[O-])cc2)cc1,inconclusive: -10.9%,–
CC(C)OCCCNC(=O)C1CCC(=O)N1C1CCCC1 (configuration not stated),–,"inconclusive: 4.61 µM [rising, full curve, poor fit]"
CSc1ccc(S(=O)(=O)NCc2ccc(Cl)cc2Cl)cc1,inconclusive: 0.13%,–
O=C(NCCc1ccc(F)cc1)c1ccc([N+](=O)[O-])cc1,inconclusive: 0.938%,–
CCCC1(CCC)NC(=O)N(CC(=O)c2cc(C)n(-c3ccc4c(c3)OCO4)c2C)C1=O,inconclusive: 5.62%,–
CC(C)(C)OC(=O)NCCCCc1cn(CC(=O)N2CCN(C(=O)OC(C)(C)C)CC2)nn1,inactive: 9.13%,–
Cc1ccc(NC(=O)c2cc(NC(=O)c3ccco3)ccc2N2CCOCC2)cc1Cl,–,"inconclusive: 18.4 µM [falling, partial curve]"
NS(=O)(=O)c1c(Sc2ccccc2C(=O)O)ccc2ccccc12,–,"inconclusive: 0.282 µM [rising, full curve, poor fit]"

SMILES,"activity change, negative = inhibition",Potency
CC(=O)c1cccc(NC(=O)N2CCCC2C(=O)Nc2ccc3c(c2)OCO3)c1 (configuration not stated),inconclusive: 3.66%,–
CCCNC(=O)c1ccccc1NC(=O)CN(c1ccccc1)S(=O)(=O)N(C)C,inconclusive: -6.7%,–
Cc1ccc(/C=C/C(=O)NC2CCCCCCC2)o1,inconclusive: 4.52%,–
COCCCNS(=O)(=O)c1cccc(S(=O)(=O)c2cccc(S(=O)(=O)NCCCOC)c2)c1,inconclusive: -0.49%,–
COC(=O)c1sccc1NC(=O)c1ccc(OC)c(OC)c1,–,"inconclusive: 0.517 µM [rising, full curve, poor fit]"
COc1ccc2oc(=O)c(C(=O)N3CCCC3)cc2c1,inconclusive: 7.75%,–
Cc1ccc(C(=O)NCc2ccco2)cc1,inconclusive: -9.96%,–
Oc1ccccc1-c1nc2c3ccccc3c3ccccc3c2[nH]1,–,"inconclusive: 10 µM [rising, partial curve, poor fit]"
COc1cc(CN2CCC(CO)(Cc3cccc(C(F)(F)F)c3)CC2)ccc1F,inconclusive: -23.1%,–
CCc1c(C)nc(Nc2nc(C)c3cc(OC)ccc3n2)[nH]c1=O,inconclusive: -11.7%,–
O=C(COc1ccc2ccc(=O)oc2c1)OCc1ccccc1,inconclusive: 20.5%,–
C=CCSC1=NC(=O)/C(=C/c2cccs2)S1,inconclusive: 1.45%,–
Cc1ccc(S(=O)(=O)N(C)Cc2ccc(C(=O)N/N=C/c3ccc(OC(F)F)cc3OC(F)F)cc2)cc1,inactive: 0.058%,–
Cc1ccc(C)c(N(CC(=O)Nc2ccccc2C(=O)NCc2ccco2)S(=O)(=O)c2ccccc2)c1,–,"inconclusive: 5.8 µM [rising, partial curve]"
O=C(c1ccc(NS(=O)(=O)c2ccc3[nH]c(=O)[nH]c3c2)cc1)N1CCN(c2ccccc2O)CC1,inactive: 0.249%,–
CCn1c(C(=O)N2CCc3ccccc3C2)cc2oc3ccccc3c21,–,"inconclusive: 14.6 µM [falling, single point]"
COc1cccc(NC(=O)CN(c2ccccc2OC)S(=O)(=O)c2cccs2)c1,inconclusive: -9.09%,–
COc1ccc(-c2nnc(Nc3nc4c(OC)cccc4s3)o2)c(OC)c1,–,"inconclusive: 3.26 µM [falling, partial curve]"
Cc1cccc2cc(COC(=O)C(C)C)c(=O)[nH]c12,inconclusive: 4.24%,–
COc1ccc(NC(=O)N/C=C/c2ccco2)cc1,inconclusive: -8.56%,–
O=C1C(=O)N(Cc2cccc([N+](=O)[O-])c2)c2ccccc21,–,"inconclusive: 29.1 µM [falling, single point]"

SMILES,"activity change, negative = inhibition",Potency
COc1ccc(OC)c(C2CC(=O)N3CN(c4ccccc4)CSC3=C2C#N)c1 (configuration not stated),inactive: -4.14%,–
Cc1ccc(NC(=O)CN(C)C(=O)c2ccc(Cl)c([N+](=O)[O-])c2)cc1,inconclusive: 16.7%,–
COc1ccc(C(=O)c2ccc(OC)c(OC)c2)cc1,inconclusive: -14.4%,–
CSc1nc(N)nc(SCC(=O)CC(=O)OC(C)C)c1C#N,inactive: 6.91%,–
CCN(C(=O)c1cc2c(s1)-c1ccccc1OC2)c1cc(OC)ccc1OC,inconclusive: 6.01%,–
O=C(NCc1ccc(Cl)cc1)C(=O)NCC1CCCN1S(=O)(=O)c1cccs1 (configuration not stated),inconclusive: -10.1%,–
COc1ccccc1OCC(=O)N1CCCC(Nc2cccc(F)c2)C1 (configuration not stated),inactive: 0.313%,–
Cc1ccc(CNC(=O)C2CC(c3ccccc3[N+](=O)[O-])=NO2)o1 (configuration not stated),–,"inconclusive: 17.8 µM [falling, single point]"
CN(C(=O)COC(=O)c1ccc([N+](=O)[O-])cc1N)c1ccccc1,inconclusive: 1.16%,–
N#Cc1ccccc1NC(=O)Nc1ccc(Cl)cc1,inactive: -19.5%,–
CC(=O)Nn1c(COc2ccccc2C)nc2ccccc2c1=O,inactive: 1.38%,–
O=C(OCc1cncs1)c1ccccc1,inconclusive: 9.1%,–
O=C(C[C@H]1C[C@H](C(=O)N2CCCCC2)[C@@]2(CCc3ccccc3)c3[nH]c4cc(-c5ccco5)ccc4c3CCN2C1=O)NCCN1CCOCC1,–,"inconclusive: 25.9 µM [falling, single point]"
Cc1ccc(C(=O)n2nc(C#N)c(C#N)c2N)cc1,inactive: 7.52%,–
Cc1cc(NC(=O)CSc2nc3c(cc2C#N)CCCC3)no1,inactive: 10.9%,–
O=C(CSCCS(=O)(=O)c1ccc(Cl)cc1)Nc1ccccc1,inconclusive: 12.4%,–
CCS(=O)(=O)N1N=C(c2cccc(NS(C)(=O)=O)c2)CC1c1ccc(C)cc1 (configuration not stated),inactive: 3.4%,–
O=C1CS/C(=N/N=C/c2cccs2)N1,–,"inconclusive: 28.2 µM [falling, single point]"
COc1ccc(C(=O)CN2C(=O)c3ccccc3C2=O)cc1,–,"inconclusive: 20 µM [falling, single point]"
Cc1cc(N2CCCC2)nc2ccc(NC(=S)NCCCN3CCC(C)CC3)cc12,inactive: -22.5%,–
COc1ccccc1/C=C/C=N/n1c(-c2ccco2)n[nH]c1=S,–,"inconclusive: 6.31 µM [falling, single point]"

SMILES,"activity change, negative = inhibition",Potency
O=c1c2ccccc2ncn1Cc1nc2ccccc2s1,inactive: 1.97%,–
CCN(c1cccc(C)c1)S(=O)(=O)c1cc2c3c(c1)CCC(=O)N3CCC2,inactive: 3.67%,–
COc1ccc(NC(=O)Nc2nnc(C(C)C)s2)cc1,inactive: 0.317%,–
Oc1ccc(/C=N/NC(=S)NCCN2CCOCC2)c(O)c1,–,"inconclusive: 15.8 µM [falling, single point]"
CC(C)OCCCNC(=O)C1CCC(CNS(=O)(=O)c2cccc3nsnc23)CC1 (configuration not stated),–,"inconclusive: 0.794 µM [falling, full curve, poor fit]"
COC(=O)c1sc(NC(=O)Cc2cccs2)nc1C,inconclusive: -0.668%,–
COc1ccc(Cl)cc1NC(=O)C1COc2ccccc2O1 (configuration not stated),–,"inconclusive: 4.47 µM [rising, partial curve, poor fit]"
COc1ccc(Cl)cc1CSc1n[nH]c(C)n1,inconclusive: 7.63%,–
COc1ccc(OC)c(C2=NOC(C(=O)NCc3cccnc3)C2)c1 (configuration not stated),inactive: -0.105%,–
Cc1ccc(NC(=O)C2=C(c3ccccc3)S(=O)(=O)CCS2(=O)=O)cc1,inconclusive: 18.9%,–
Oc1ccccc1/C=N/n1cnnc1,–,"inconclusive: 29.1 µM [falling, single point]"
CCN(CC)S(=O)(=O)c1ccc(C(=O)NCc2ccc3c(c2)OCO3)cc1,–,"inconclusive: 2.24 µM [falling, full curve, poor fit]"
N#Cc1c(N)n(CCNC(=O)c2cccs2)c2nc3ccccc3nc12,–,"inconclusive: 23.1 µM [rising, partial curve, poor fit]"
Cc1cc(C)cc(NC(=O)CSc2nccn2C2CCCC2)c1,inactive: -9.18%,–
COc1ccccc1CNC(=O)CCS(=O)(=O)Cc1ccc(C)cc1,inactive: -2.55%,–
Cc1nnc(SCC(=O)N(C)C2CCCCC2)s1,inconclusive: 3.44%,–
CC(C)Cn1nc(NC(=O)C(C)(C)C)c2cc3ccccc3nc21,inconclusive: 3.12%,–
CN(C)c1ccc(CNc2nc3ccccc3s2)cc1,inconclusive: 4.91%,–
CN1CCN(C(=O)c2ccc(COc3cc(Cl)ccc3Cl)o2)CC1,inconclusive: -22.9%,–

# Already shown: entries from further up.
SMILES,"activity change, negative = inhibition",Potency
COc1ccc(OC)c(C2=NOC(C(=O)NCc3cccnc3)C2)c1 (configuration not stated),inactive: -0.105%,–
Cc1ccc(NC(=O)C2=C(c3ccccc3)S(=O)(=O)CCS2(=O)=O)cc1,inconclusive: 18.9%,–
Oc1ccccc1/C=N/n1cnnc1,–,"inconclusive: 29.1 µM [falling, single point]"
CCN(CC)S(=O)(=O)c1ccc(C(=O)NCc2ccc3c(c2)OCO3)cc1,–,"inconclusive: 2.24 µM [falling, full curve, poor fit]"
N#Cc1c(N)n(CCNC(=O)c2cccs2)c2nc3ccccc3nc12,–,"inconclusive: 23.1 µM [rising, partial curve, poor fit]"
Cc1cc(C)cc(NC(=O)CSc2nccn2C2CCCC2)c1,inactive: -9.18%,–
